Laboratory results as given in patent US6632625 (MERCK, dated 2003).
Results are given in words; binding and its absence hold for the method and conditions named. Some results given as binding are weak or reduced against the parent protein; the word gives no strength.

Sequences of proteins named here, by UniProt entry; tags and fusion partners are left off. A change or cut given only in a name is not applied to a line headed by its entry. Residues count along the entry.
UniProt P48357, residues 23-866: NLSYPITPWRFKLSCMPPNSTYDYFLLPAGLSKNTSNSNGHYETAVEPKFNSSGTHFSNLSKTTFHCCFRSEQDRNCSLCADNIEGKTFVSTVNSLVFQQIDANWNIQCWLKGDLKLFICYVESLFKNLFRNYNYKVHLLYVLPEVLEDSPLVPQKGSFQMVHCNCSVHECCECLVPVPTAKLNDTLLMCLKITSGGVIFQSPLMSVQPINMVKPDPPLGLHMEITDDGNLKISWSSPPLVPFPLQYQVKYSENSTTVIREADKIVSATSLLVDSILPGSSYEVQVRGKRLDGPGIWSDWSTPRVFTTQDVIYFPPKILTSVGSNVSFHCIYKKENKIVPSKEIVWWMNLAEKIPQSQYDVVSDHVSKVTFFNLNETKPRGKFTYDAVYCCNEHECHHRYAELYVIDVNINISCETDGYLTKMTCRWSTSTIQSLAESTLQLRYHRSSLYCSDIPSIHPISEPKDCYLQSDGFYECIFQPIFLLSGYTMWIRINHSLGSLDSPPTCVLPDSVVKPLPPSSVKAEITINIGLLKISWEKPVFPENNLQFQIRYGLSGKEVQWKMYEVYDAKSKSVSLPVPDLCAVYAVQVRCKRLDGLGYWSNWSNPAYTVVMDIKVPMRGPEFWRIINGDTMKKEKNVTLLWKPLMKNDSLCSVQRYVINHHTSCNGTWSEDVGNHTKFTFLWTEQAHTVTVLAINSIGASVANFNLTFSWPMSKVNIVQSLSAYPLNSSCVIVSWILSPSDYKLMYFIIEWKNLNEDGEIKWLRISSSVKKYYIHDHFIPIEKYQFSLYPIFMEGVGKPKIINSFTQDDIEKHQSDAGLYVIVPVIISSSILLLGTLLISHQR
UniProt P41159, residues 22-167: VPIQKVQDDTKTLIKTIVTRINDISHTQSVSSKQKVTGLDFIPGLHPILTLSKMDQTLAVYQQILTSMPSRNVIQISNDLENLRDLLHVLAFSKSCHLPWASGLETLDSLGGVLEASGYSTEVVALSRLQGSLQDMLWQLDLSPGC

Target: deletion mutant D(867-1165) of the human OB-R (human) (UniProt P48357)
Test: leptin binding on transfected COS cells

binding: binds
Substance: recombinant human leptin (from UniProt P41159 22-167) (ligand)
